# Where “and” joins values, the source holds several entries; their conditions need not be identical. Equal values may be shown once. The whole screen tested about 300,000 compounds, of which about 3,700 (1.2%) were called active. This list was built around the results that the source calls inconclusive (neither active nor inactive); the mix of calls is not that of the screen. Calls follow the shape of the full dose curve; tested in HEK293 cells. Where the call is inconclusive, the potency comes from a doubtful curve fit.
# Experiment: qHTS for Inhibitors of binding or entry into cells for Lassa Virus; also: nearly all actives have a fitted effect of over 50% in size
# Details: Lassa virus pseudotype entry inhibition, cell reporter; series mostly up to 37.9 µM
# Potency is read from the fitted curve at half-maximal effect.
row,SMILES,Potency
1,Cc1ccc(N2CC(NC(=O)c3ccccc3C(F)(F)F)CC2=O)cc1C (centres undefined),inactive
2,COc1ccc(-c2nn(-c3ccccc3)cc2/C=N/Nc2ccccn2)cc1OC,"inconclusive: 23.1 µM [inhibitor, partial curve, poor fit]"
3,Nc1nc(Cl)c(C=O)c(N2CCCCC2)n1,"inconclusive: 14.1 µM [inhibitor, single point]"
4,Cc1ccc(CN(C)C(=O)c2c(C)nn(-c3ccccc3)c2C)cc1,inactive
5,O=C(CN1CCCCC1)N/N=C/c1cc2ccccc2nc1Cl,"inconclusive: 15.8 µM [activator, partial curve, poor fit]"
6,C/C(=N\NC(=O)c1cccs1)C(C)(C)C,"inconclusive: 29.1 µM [activator, single point]"
7,CCOc1ccccc1N1CCN(S(=O)(=O)c2cccc3nsnc23)CC1,"inconclusive: 5.8 µM [inhibitor, full curve]"
8,O=C(Nc1ccc2c(c1)CCCN2C(=O)c1cccs1)c1ccc(F)c(F)c1,"inconclusive: 5.62 µM [inhibitor, full curve, poor fit]"
9,CCOc1ccc(C(=O)NCc2ccccc2)cc1Br,"inconclusive: 14.6 µM [inhibitor, partial curve, poor fit]"
10,CCOC(=O)c1cnc2ccc(Br)cc2c1NCCN1CCOCC1,inactive
11,O=C(Cc1ccccc1)Nc1cccnc1,inactive
12,Nc1nonc1-n1nnc(C(=O)N/N=C/C=C/c2ccccc2)c1CSC1=NCCS1,"inconclusive: 15.8 µM [inhibitor, single point]"
13,COc1cc(C2NC(=O)NC(C)=C2C(=O)OC2CCCCC2)cc(Br)c1O (centres undefined),"inconclusive: 29.1 µM [inhibitor, single point]"
14,CCn1c2ccccc2c2cc(NC(=O)c3cccc(OC)c3OC)ccc21,"inconclusive: 7.08 µM [inhibitor, full curve, poor fit]"
15,O=C(CN1C(=O)c2ccc([N+](=O)[O-])cc2C1=O)NCc1ccc(C(=O)O)cc1,"inconclusive: 15.8 µM [inhibitor, single point]"
16,CC(=O)Nc1ccc(S(=O)(=O)Nc2ccc3c(c2)OCCO3)cc1,"inconclusive: 0.891 µM [inhibitor, full curve, poor fit]"
17,CCc1ccc(NC(=O)c2cc(-c3ccc(OC)cc3)on2)cc1,inactive
18,C=CCn1c(SCc2cc(C(=O)OC)c(C)o2)nnc1-c1ccncc1,"inconclusive: 23.1 µM [activator, single point]"
19,CCOc1ccc(OCC)c(NC(=O)c2nnn(CC(=O)Nc3cc(Cl)ccc3OC)c2N)c1,inactive
20,C=CCCc1ccc(C#N)c(SCc2c(C(=O)OCC)c3cc(OC(C)=O)c(Br)cc3n2C)n1,active: 7.94 µM
21,C=CCOc1c(CNc2ncn[nH]2)cccc1OCC,"inconclusive: 35.5 µM [activator, single point]"
22,CC(C)CCn1c(=O)c2ccccc2n2c(CN3C(=O)NC4(CCC(C)CC4)C3=O)nnc12 (centres undefined),"inconclusive: 20.6 µM [inhibitor, partial curve, poor fit]"
23,O=C(N1CCN(c2ccccn2)CC1)N1c2ccccc2Sc2ccccc21,"inconclusive: 25.9 µM [inhibitor, partial curve, poor fit]"

row,SMILES,Potency
1,COc1ccc(CNC(=O)C2CCCN(Cc3nc(-c4cccc(C)c4)oc3C)C2)cc1 (centres undefined),"inconclusive: 20.6 µM [inhibitor, partial curve, poor fit]"
2,Cc1ccc(-c2c3c(=O)n(C)c(=O)n(C)c3c3n2-c2ccccc2NC3c2ccc(C)cc2O)cc1 (centres undefined),inactive
3,Cc1nn2c(-c3ccc(F)cc3)ccnc2c1Cl,"inconclusive: 1.26 µM [activator, single point]"
4,Clc1ccc(-n2ncc3c(N4CCCC4)ncnc32)cc1,"inconclusive: 82 nM [activator, full curve, poor fit] and inconclusive: 631 nM [inhibitor, full curve, poor fit]"
5,COc1cccc(/C=N/Nc2snc(SC)c2C#N)c1O,"inconclusive: 7.94 µM [inhibitor, partial curve, poor fit]"
6,c1ccc2c(c1)[I+]c1ccccc1-2,active: 0.259 µM
7,Cc1nc(Nc2cccc(F)c2)c2oc3ccccc3c2n1,inactive
8,CC(=O)c1ccc(NC(=O)CSc2nnc(C3CC3)n2C)cc1,"inconclusive: 35.5 µM [activator, single point]"
9,Cc1ccc(Cn2c(SCc3ccc(C(=O)N4CCCCC4)cc3)nc3ccncc32)cc1,inactive
10,Cc1ccc(C(=O)Nc2ccc3ccccc3c2)cc1,"inconclusive: 1.58 µM [inhibitor, full curve, poor fit]"
11,CC(NC(=O)c1cccs1)c1ccc(Cl)cc1 (centres undefined),"inconclusive: 3.55 µM [activator, partial curve, poor fit]"
12,O=C(CN1CCOCC1)N1CCc2ccccc2C(c2ccccc2)C1 (centres undefined),inactive
13,Cc1ccccc1-c1cc2nc(C)c(Cl)c(=O)n2[nH]1,"inconclusive: 7.08 µM [inhibitor, partial curve, poor fit]"
14,CCC(=O)N1CCc2cc(CNC(=O)c3cccc(N(C)C)c3)ccc21,inactive
15,Cc1ccc(N2C(=O)C3CC(c4ccccc4)=C4C5C=CC(C6C(=O)N(c7ccc(C)cc7)C(=O)C56)C4C3C2=O)cc1 (centres undefined),"inconclusive: 1.26 µM [activator, single point]"
16,Cc1ccccc1NC(=O)C1CCN(S(=O)(=O)c2c(C)noc2/C=C/c2ccco2)CC1,inactive
17,Cc1cccc2cc(CN(Cc3cccs3)Cc3nnnn3Cc3ccccc3)c(=O)[nH]c12,"inconclusive: 32.6 µM [inhibitor, single point]"
18,CCOc1ccc(N(CC(=O)NC2CCCC2)C(=O)CCC(=O)Nc2nccs2)cc1,inactive
19,COc1cccc(Nc2nc(-c3ccccc3)nc3ccccc23)c1,"inconclusive: 20 µM [inhibitor, partial curve, poor fit]"
20,Cc1ccc(C(=O)Nc2ccccc2Cl)cc1,"inconclusive: 1.12 µM [activator, partial curve, poor fit]"
21,CN(C)NC(=O)c1ccsc1NC(=O)c1ccc(S(=O)(=O)N2CCCC2)cc1,"inconclusive: 25.1 µM [inhibitor, single point]"
22,CS(=O)(=O)N1CCC(c2noc(-c3ccc(C(F)(F)F)cc3)n2)CC1,"inconclusive: 1 µM [inhibitor, full curve, poor fit]"
23,O=C1CN(C(=O)COC(=O)c2ccccc2NCc2ccco2)c2ccccc2N1,"inconclusive: 22.4 µM [inhibitor, single point]"

# Part of the list above, set out differently.
row	SMILES	Potency
21	C=CCOc1c(CNc2ncn[nH]2)cccc1OCC	inconclusive: 35.5 µM [activator, single point]
22	CC(C)CCn1c(=O)c2ccccc2n2c(CN3C(=O)NC4(CCC(C)CC4)C3=O)nnc12 (centres undefined)	inconclusive: 20.6 µM [inhibitor, partial curve, poor fit]

# More compounds:

row,SMILES,Potency
1,COCCNC(=O)CSc1nc2ccccc2c(=O)n1CCC(=O)NCCc1ccc(OC)c(OC)c1,"inconclusive: 35.5 µM [inhibitor, single point]"
2,CC(C)NC(=O)c1n[nH]c(=O)c2ccccc12,inactive
3,OCCN1CCN(C(=S)NC2CCCC2)CC1,inactive
4,CN(C(=O)CSc1nc(-c2ccccc2)no1)c1ccc(F)cc1,inactive
5,Cc1ccc2nc(-c3ccc(N4C(=NC(=O)CCC(=O)O)SC5CS(=O)(=O)CC54)cc3)sc2c1 (centres undefined),"inconclusive: 2.82 µM [activator, partial curve]"
6,COc1ccc(C(=O)c2sc3nc4c(c(C(F)(F)F)c3c2N)CN(C(C)=O)CC4)cc1OC,"inconclusive: 14.1 µM [inhibitor, single point]"
7,CCOC(=O)c1c(C)oc2cc(Br)c(OC(=O)N3CCOCC3)cc12,"inconclusive: 12.6 µM [inhibitor, single point]"
8,CC1CCCCN1CCCNC(=O)CN1C(=O)c2cccnc2Oc2ccc(Cl)cc21 (centres undefined),inactive
9,Cc1ccccc1N1CCN(C(=O)c2ccccc2NC(=O)c2ccccc2C(=O)O)CC1,inactive
10,CC12CCC(O)CC1CCC1C2CCC2(C)C(C(=O)CC(O)C(F)(F)F)CCC12 (centres undefined),"inconclusive: 14.1 µM [inhibitor, single point]"
11,COc1cc(C2C3=C(CC(c4ccco4)CC3=O)Nc3ccccc3N2C(C)=O)cc(OC)c1OC (centres undefined),inactive
12,Cc1ccc2cc3cc(C(=O)N4CCCCC4C)oc3nc2c1 (centres undefined),"inconclusive: 12.6 µM [inhibitor, single point]"
13,CCOc1ccccc1C1C(C(=O)Nc2ccccc2)=C(C)Nc2nc(SCC(=O)c3ccc(C)cc3)nn21 (centres undefined),inactive
14,Cc1oc(C(C)(C)C)cc1C(=O)Nc1ccc(C(=O)O)cc1,"inconclusive: 14.1 µM [activator, partial curve, poor fit]"
15,CCN(CC(=O)NC(=O)NCc1ccccc1)Cc1ccccc1,"inconclusive: 1.58 µM [inhibitor, full curve, poor fit]"
16,COC(=O)c1ccc(CSc2nnnn2-c2ccc(C)cc2C)o1,"inconclusive: 29.1 µM [inhibitor, single point]"
17,CC1Cc2ccccc2N1C(=O)CSc1nn2c(=O)c(C(C)(C)C)nnc2s1 (centres undefined),"inconclusive: 22.4 µM [inhibitor, single point]"
18,CCOC(=O)c1sc(=S)n(-c2ccc(Cl)cc2)c1SC,inactive
19,CC1CCCN(C(=O)CCCn2c(=S)[nH]c3ccccc3c2=O)C1 (centres undefined),inactive
20,CCOc1cccc(CN(CC)CC2CCCN(CCc3cccc(OC)c3)C2)c1O (centres undefined),"inconclusive: 5.62 µM [inhibitor, single point]"
21,Cc1c(NS(=O)(=O)c2ccccc2)c(=O)n(-c2ccccc2)n1C,inactive
22,Cc1nc2ccc(-c3nc4cc(N)ccc4o3)cc2[nH]1,"inconclusive: 14.6 µM [inhibitor, single point]"
23,Cc1csc(SCC(=O)Nc2cccc(S(=O)(=O)N3CCCC3)c2)n1,inactive
